The results in this text go back to PubChem BioAssay AID493014 (National Center for Advancing Translational Sciences (NCATS), 2011).

The other results are listed elsewhere or left out. Shown are side measurements of this screen, not its main read-out; they come without a call. Compounds called inactive in the main read-out are mostly missing here. Potencies come from curve fits of mixed quality, noted in brackets.

The assay can be described thus: qHTS Assay to Find Inhibitors of Chronic Active B-Cell Receptor Signaling. As to conditions: ABC-DLBCL IkBa-CBG/CBR reporter, luminescence ratio (green luciferase fused to IkBa over red control in TMD8 lymphoma cells), 4 h. In a few lines: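 TMD8 ABC-DLBCL cells carrying doxycycline-inducible green luciferase fused to IkappaBalpha plus unfused red luciferase were exposed to compounds (up to 46 uM) for 4 hrs at 37C. Activity came from the overlap-corrected green/red luminescence ratio.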
Background: qHTS replaces the single test concentration by a dilution series.

The mark [1] stands for this setting: measured here: CBR red luminescence, cell number.
The mark [2] stands for this setting: measured here: IkBa-CBG green luminescence.

A word on the AC50: it is the midpoint of the concentration-response curve, whichever way the signal moves. In the case of `CC1CCCN(CCCNC(=O)c2ccc3c(c2)N(Cc2ccccc2F)C(=O)c2ccccc2S3(=O)=O)C1` (configuration not stated), the AC50 under setting [1] was 35.5 µM [falling, single point].
For the molecule `Cc1ccc(OCCC(=O)Nc2ccc(F)c(F)c2)cc1`, the AC50 under setting [1] was 3.66 µM [rising, partial curve].
Still for that read-out and setting: to `O=C(/C=C/c1ccccc1)c1ccc2c(c1)OCO2` belongs 35.5 µM [falling, single point]; to `COc1ccc(CCNC(=O)C(=O)NCC2OCCN2S(=O)(=O)c2ccc(OC)c(C)c2)cc1` (configuration not stated), 1.58 µM [rising, partial curve, poor fit].
In the case of `Oc1c(CN2CCCCC2)cc(Br)c2cccnc12`, the AC50 under setting [2] is 6.31 µM [falling, partial curve, poor fit].
Consider `Nc1n[nH]c(N)c1N=Nc1ccc(F)cc1`, for which the AC50 under setting [1] is 20 µM [falling, partial curve].
The same measure, in the same setting: to `O=C(CCS(=O)(=O)c1ccc(F)cc1)N1CCN(c2ccccc2)CC1` belongs 25.9 µM [falling, single point].
With `COc1cc(/C=N/N=C/c2cc(OC)c(O)c(OC)c2)cc(OC)c1O`, under setting [1], the AC50 is 6.51 µM [rising, full curve].
Same read-out and setting: to `CCS(=O)(=O)c1nnnn1-c1ccccc1S(C)(=O)=O` belongs 11.2 µM [falling, partial curve]; to `CCN(CC)S(=O)(=O)c1ccc(N2CCOCC2)c(NC(=O)C2CCCO2)c1` (configuration not stated), 35.5 µM [rising, single point].
On to `CCCNC(=O)c1c(N)n(-c2ccc3c(c2)OCO3)c2nc3ccccc3nc12`, for which the AC50 under setting [1] is 14.1 µM [falling, single point].
Still for that read-out and setting: to `CC(Sc1nc2ccccc2c(=O)n1C)C(=O)Nc1ccc2c(c1)OCCO2` (configuration not stated) belongs 0.366 µM [falling, full curve].
For the molecule `COc1ccc(Nc2oc(-c3ccc(Cl)cc3)nc2C#N)cc1`, the AC50 under setting [1] was 22.4 µM [falling, single point].
Same read-out and setting: as for `O=c1oc(-c2cccs2)nc2scc(-c3cccs3)c12`, the figure is 0.231 µM [falling, full curve, poor fit]; as for `CC(C)(C)c1nc2c(C#N)c(-c3ccc(Cl)cc3)ccn2n1`, 18.4 µM [rising, single point].
Take `Cc1ccc(NC(=O)CSc2nnc(Cc3csc(C)n3)o2)cc1`: the AC50 under setting [1] was 0.103 µM [falling, full curve, poor fit].
With `COc1ccc(NC(=O)c2nc3ccccc3s2)cc1`, the AC50 under setting [1] was 16.4 µM [falling, partial curve].
On the same count and under the same terms, as for `Cn1nc(-c2ccc(NCCO)c([N+](=O)[O-])c2)c2ccccc2c1=O`, the figure is 31.6 µM [rising, single point]; as for `Brc1ccc(-c2noc(CCc3ccccc3)n2)o1`, 0.398 µM [rising, full curve, poor fit].
On the same count and under the same terms, to `COc1ccc(/C=N/NC(=O)c2cccc(OC(F)(F)C(F)F)c2)cc1O` belongs 20.6 µM [falling, single point]; to `CCOC(=O)C(NC(=O)CCl)(Nc1sc(C)c(CC)c1C#N)C(F)(F)F` (configuration not stated), 13 µM [falling, partial curve].
On the same count and under the same terms, to `O=C1c2ccccc2C(=O)N1CCC#Cc1ccc2cc(C3(O)CCCCC3)oc(=O)c2c1` belongs 1.64 µM [rising, full curve, poor fit]; to `Cc1onc(-c2ccccc2Cl)c1C(=O)Nc1cccc2cccnc12`, 11.2 µM [falling, partial curve].
Consider `COc1ccc(CN(Cc2cc3cc4c(cc3[nH]c2=O)OCO4)C(=O)NC2CCCCC2)cc1`, for which, under setting [1], the AC50 is 1.03 µM [rising, partial curve, poor fit].
The same measure, in the same setting: to `Cc1ccc(NC(=O)CCSc2ccccc2)c(C)c1` belongs 35.5 µM [rising, single point]; to `COc1ccccc1NC(=O)Nc1cccc(C)n1`, 2.24 µM [rising, full curve].
Same read-out and setting: to `O=C(CSc1ncnc2sc3c(c12)CCCC3)c1ccccc1` belongs 32.6 µM [rising, single point]; to `O=C(Nc1cccnc1)c1ccc(-c2ccccc2)cc1`, 22.4 µM [falling, single point].
`O/N=C1\CC/C(=N\O)c2nn(-c3ccc(Cl)cc3Cl)nc21`: the AC50 under setting [1] was 35.5 µM [falling, single point].
For the molecule `COc1ccc(NC(=O)C2C(c3ccccc3)C2(Cl)Cl)cc1` (configuration not stated), under setting [1], the AC50 is 6.31 µM [rising, single point].
The same measure, in the same setting: as for `C=CCNC(=O)c1c(Br)cnn1-c1ccc(C)cc1`, the figure is 2.51 µM [rising, partial curve, poor fit].
Still for that read-out and setting: as for `COc1cc(C(=O)Nc2ccc(Nc3ccccc3)cc2)cc(OC)c1OC`, the figure is 15.8 µM [falling, single point]; as for `CCc1c(C(=O)OCc2ccccc2)[nH]c(C)c1C`, 0.251 µM [rising, full curve, poor fit]; as for `CC(C)c1ccc(C2=CC(c3ccc(C(C)C)cc3)n3nnnc3N2)cc1` (configuration not stated), 0.355 µM [rising, partial curve, poor fit].
In the case of `COc1cc(CNC(=O)c2ccc(Cn3nc(C)c(Cl)c3C)o2)cc(OC)c1`, the AC50 under setting [1] is 20.6 µM [falling, single point].
The same measure, in the same setting: to `CCn1c(N2CCN(C(=O)/C=C/c3ccccc3)CC2)nc2ccccc21` belongs 11.2 µM [falling, partial curve, poor fit]; to `O=Cc1ccc(-c2ccc(Cl)cc2Cl)[nH]1`, 35.5 µM [rising, single point]; to `COc1ccc(-c2oc(=O)c3cc(OC)c(OC)cc3c2/C=C/c2ccc(OC(C)=O)cc2)cc1`, 4.61 µM [falling, single point].
For the molecule `Cc1cc(NC(=O)CSc2nccn2-c2cccc(C)c2C)no1`, the AC50 under setting [1] was 11.2 µM [falling, partial curve, poor fit].
On the same count and under the same terms, as for `O=C(CCl)N1c2ccccc2OCC1c1ccccc1` (configuration not stated), the figure is 11.6 µM [falling, single point]; as for `COc1ccccc1-c1cc(C(=O)N2CCN(S(=O)(=O)c3ccc(C)cc3)CC2)[nH]n1`, 3.98 µM [falling, full curve, poor fit]; as for `O=C(O)C(Cc1cc(Cl)ccc1Cl)Sc1nc2ccccc2[nH]1` (configuration not stated), 15.8 µM [falling, single point].
For the molecule `Brc1ccc(Nc2nc(-c3cccnc3)cs2)cc1`, the AC50 under setting [1] is 35.5 µM [falling, single point].
Consider `CCc1sc(C(=O)Nc2nccs2)cc1C`, for which, under setting [1], the AC50 was 11.2 µM [falling, single point].
As for `O=C(O)Cc1ccc(N=Nc2c(O)c(C(=O)O)cc3ccccc23)cc1`, the AC50 under setting [1] is 7.08 µM [falling, partial curve, poor fit].
On the same count and under the same terms, as for `O=C(NCc1ccco1)c1ccc2c(c1)C(=O)c1ccccc1-2`, the figure is 20.6 µM [falling, single point]; as for `Cc1noc(C)c1CSCC(=O)Nc1nc2ccc(F)cc2s1`, 20.6 µM [falling, single point].
The same measure, in the same setting: to `Sc1oc(-c2ccccc2)cc1C=Nc1ccccc1` belongs 6.51 µM [rising, single point].
Turning to `Cc1ccc2c(c1)C(=O)C(=O)N2Cc1ccc(Cl)cc1`, the AC50 by setting is: under setting [1], 23.1 µM [falling, partial curve, poor fit]; under setting [2], 18.4 µM [falling, single point].
As to `O=C(CCN1C(=O)C2C3CC(C(Br)C3Br)C2C1=O)OCC(=O)c1cccc([N+](=O)[O-])c1` (configuration not stated), under setting [1], the AC50 was 7.94 µM [rising, partial curve, poor fit].
Still for that read-out and setting: as for `O=C(Nc1nnc(-c2ccncc2)s1)Nc1ccccc1F`, the figure is 1 µM [falling, full curve]; as for `Fc1ccc(Nc2nc(NCc3ccco3)c3ccccc3n2)cc1`, 0.891 µM [rising, full curve].
For `COc1ccccc1NC(=O)c1ccc(NC(=O)CSc2nc(N)cc(=O)[nH]2)cc1`, the AC50 under setting [1] was 5.17 µM [rising, partial curve, poor fit].
Same read-out and setting: to `O=C(O)C(=O)Cc1c[nH]c2ccccc12` belongs 5.17 µM [falling, partial curve, poor fit]; to `Cc1ccc(NC(=O)C(C)c2cccc(C(=O)c3ccccc3)c2)cc1` (configuration not stated), 35.5 µM [falling, single point]; to `CC(CN1CCNCC1)(NS(=O)(=O)c1ccccc1)c1ccccc1` (configuration not stated), 29.1 µM [falling, single point].
The same measure, in the same setting: as for `CN1CCN(c2ccc(S(=O)(=O)N3CCCCC3)cc2NC(=O)c2ccc(C#N)cc2)CC1`, the figure is 6.51 µM [falling, partial curve, poor fit]; as for `CCOC(=O)Cn1c(=NC(=O)c2nc3ccccc3s2)sc2cc(S(N)(=O)=O)ccc21`, 2.91 µM [rising, partial curve, poor fit].
The same measure, in the same setting: as for `N#Cc1c2n(c3c(=O)n(Cc4ccccc4Cl)cnc13)CCCCC2`, the figure is 5.62 µM [rising, single point].
As for `N=C1/C(=C\c2coc3ccccc3c2=O)C(=O)N=C2SC(c3ccncc3)=NN12`, the AC50 under setting [1] was 2.82 µM [rising, partial curve, poor fit].
Turning to `CCCCCC(=O)Nc1cccc(C2=NOC3(C2)C[C@H](C(N)=O)N(C(=O)c2ccccc2)C3)c1` (some centres not stated), the AC50 under setting [1] was 20 µM [rising, partial curve, poor fit].
On the same count and under the same terms, to `CCOC(=O)/C=C1\NC(C)(C)Cc2cc(OC)c(OC)cc21` belongs 35.5 µM [rising, single point]; to `O=C(Cc1ccccc1)NCC(=O)OC(c1ccccc1)c1ccccc1`, 0.708 µM [rising, full curve, poor fit].
In the case of `CCOc1cccc2cc(C(=O)NCCC3=CCCCC3)c(=O)oc12`, the AC50 under setting [1] was 10 µM [falling, partial curve, poor fit].
Same read-out and setting: to `COC(=O)c1sc(=S)n(-c2cc(F)ccc2F)c1N` belongs 35.5 µM [rising, single point]; to `CCOc1ccccc1NC(=O)CNC(=O)c1nn(-c2ccc(OC)c(OC)c2)c(=O)c2ccccc12`, 22.4 µM [falling, single point].
